Measured values as given in paper PMC3425544, “The S100A10 Subunit of the Annexin A2 Heterotetramer Facilitates L2-Mediated Human Papillomavirus Infection” (PLoS ONE, 2012).
No constants are given. Whether binding was seen depends on the method and setting. For some assays here: Binding seen in cells or lysates may run through a third protein. Some binding calls cover weakened binding; strength is not graded here.

Chains of the proteins cited; added tags and fusions are not shown. Residues count along the entry.
UniProt P03101: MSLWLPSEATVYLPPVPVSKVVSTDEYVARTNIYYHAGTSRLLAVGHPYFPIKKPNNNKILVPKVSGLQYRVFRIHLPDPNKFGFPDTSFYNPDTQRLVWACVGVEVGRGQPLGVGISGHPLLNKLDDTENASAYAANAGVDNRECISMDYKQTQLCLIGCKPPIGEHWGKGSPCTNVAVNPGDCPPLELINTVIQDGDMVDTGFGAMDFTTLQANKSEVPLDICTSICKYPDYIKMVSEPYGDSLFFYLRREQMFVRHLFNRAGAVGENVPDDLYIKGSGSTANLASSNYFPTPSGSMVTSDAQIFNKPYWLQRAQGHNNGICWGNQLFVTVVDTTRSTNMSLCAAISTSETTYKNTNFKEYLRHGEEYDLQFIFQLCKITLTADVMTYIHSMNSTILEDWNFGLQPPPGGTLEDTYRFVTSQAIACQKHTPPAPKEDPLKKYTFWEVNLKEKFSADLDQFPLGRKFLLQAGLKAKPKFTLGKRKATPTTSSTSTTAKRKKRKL
UniProt P07355: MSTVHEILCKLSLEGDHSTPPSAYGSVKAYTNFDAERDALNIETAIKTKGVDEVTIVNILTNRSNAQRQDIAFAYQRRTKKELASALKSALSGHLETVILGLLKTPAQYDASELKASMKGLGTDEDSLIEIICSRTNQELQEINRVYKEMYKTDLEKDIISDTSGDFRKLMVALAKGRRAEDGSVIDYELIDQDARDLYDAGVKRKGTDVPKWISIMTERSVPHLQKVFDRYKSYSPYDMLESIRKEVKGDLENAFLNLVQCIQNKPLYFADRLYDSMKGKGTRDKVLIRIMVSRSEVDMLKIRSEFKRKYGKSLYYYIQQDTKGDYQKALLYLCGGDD
UniProt P60903: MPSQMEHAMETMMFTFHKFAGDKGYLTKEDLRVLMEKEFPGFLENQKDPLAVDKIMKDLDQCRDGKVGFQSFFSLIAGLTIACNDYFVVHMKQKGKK
UniProt P03973, residues 26-132: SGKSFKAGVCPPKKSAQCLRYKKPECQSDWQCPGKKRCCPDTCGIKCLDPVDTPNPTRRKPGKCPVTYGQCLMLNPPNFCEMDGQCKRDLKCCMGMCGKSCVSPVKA

Experiments:
[1] = molecular target: HPV16 L1L2 virus-like particles (human papillomavirus type 16) (UniProt P03101); assay: co-IP; HeLa cells incubated with 125 µg particles for 1 hour at 37°C, surface proteins cross-linked with 1.5 mM DTSSP, lysed (1% NP-40); particles precipitated with anti-L1 H16.V5 on Protein-G Dynabeads; Western blot for annexin A2 and S100A10; only the target purified
[2] = molecular target: HPV16 L1 virus-like particles (human papillomavirus type 16) (UniProt P03101); assay: as above
[3] = molecular target: wildtype HPV16 pseudovirions (L1 and L2 capsid with a GFP reporter plasmid) (human papillomavirus type 16) (UniProt P03101); assay: as above
[4] = molecular target: annexin A2 heterotetramer (A2t), purified human recombinant (human) (UniProt P07355); assay: ELISA; both purified
[5] = molecular target: annexin A2 heterotetramer (A2t), purified human recombinant (human) (UniProt P07355); assay: ELISA; 500 ng purified A2t coated overnight at 4°C, blocked with 10% casein; 400 ng PsV or rhu SLPI added; PsV detected with anti-L1 H16.V5, SLPI with goat anti-SLPI; absorbance at 490 nm; both purified

Row | binding [4] | Substance | binding [1] | binding [2] | binding [3] | binding [5]
1 | – | S100A10 on the surface of HeLa cells (from UniProt P60903 1-97) | binds | no binding | binds | –
2 | – | annexin A2 on the surface of HeLa cells (from UniProt P07355 1-339) | binds | no binding | binds | –
3 | binds | recombinant human secretory leukocyte protease inhibitor (from UniProt P03973 26-132) | – | – | – | –
4 | – | wildtype HPV16 pseudovirions (L1 and L2 capsid with a GFP reporter plasmid) (from UniProt P03101 1-505; P03107 1-473) (complex) | – | – | – | binds
